# The list shows a part of the results. These are further read-outs of the screen, such as a control signal, another cell line or another target. No call is given for them. The list favours compounds with an active or inconclusive main result. The note in brackets gives the kind of curve behind each potency; many fits are weak.
# Assay: qHTS Assay for Modulators of Lamin A Splicing
# Details: HeLa LMNA splicing GFP/RFP minigene ratio, 48 h
# How it was run: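 S3 HeLa stable clones carrying a lamin A-EGFP splicing minigene plus DsRed2 were seeded at 600 cells/well in Opti-MEM with 2% FBS, pin-dosed and incubated 48 h at 37°C. Acumen cytometry (488 nm) gave the GFP/RFP total-intensity ratio.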
# [1] = measured here: RFP viability control channel
# [2] = measured here: GFP splicing reporter channel
Compound,AC50 [1],AC50 [2]
O=C(Nc1nc(-c2ccccn2)cs1)C1COc2ccccc2O1 (stereo unspecified),"31.6 µM [rising, single point]",
Cc1cccc(NC(=O)c2ccc(COc3ccc(Cl)cc3Cl)o2)n1,"25.1 µM [rising, single point]","15.8 µM [rising, single point]"
CCC1CN(C(=O)N2CCC(C(=O)NCc3ccc(N(C)C)cc3)CC2)c2ccccc2O1 (stereo unspecified),"7.08 µM [rising, partial curve, poor fit]","2.82 µM [rising, full curve, poor fit]"
O=C(Nc1ccccc1)Nc1cccc(Cl)c1Cl,"12.6 µM [rising, partial curve]","5.62 µM [rising, partial curve]"
Cc1cc(N2CCC(C(=O)Nc3ccc(F)cc3)CC2)nc(-c2ccccc2)n1,"31.6 µM [rising, single point]",
CCCCC(=O)NCc1nc2cccnc2n1Cc1ccc(OC)cc1,"0.02 µM [falling, full curve, poor fit]",
Cc1c(C(=O)NCc2ccccc2Cl)sc2nc3n(c(=O)c12)CCCCC3,"6.31 µM [rising, full curve]",
Cc1cn2c(=O)cc(COC(=O)c3cccc(NC(=O)c4ccc(C(C)(C)C)cc4)c3)nc2s1,"11.2 µM [rising, partial curve]",
Cc1nn2c(=O)cc(COC(=O)c3cccc(NC(=O)CCc4ccccc4)c3)nc2s1,"0.0447 µM [falling, full curve]",
COc1ccccc1CNC(=O)c1cccc(-c2ccc(C)c3ccccc23)n1,"14.1 µM [rising, partial curve]","11.2 µM [rising, partial curve]"
c1ccc2sc(SCc3ccc(-c4nnco4)cc3)nc2c1,"14.1 µM [rising, single point]",
Cc1ccc(OCC(=O)Nc2cccc(-c3nc4ccccc4s3)c2)cc1,"31.6 µM [falling, partial curve, poor fit]","35.5 µM [falling, single point]"
Cc1ccc(C(=O)c2coc3ccc(O)c(CN4CCN(C)CC4)c23)cc1,"35.5 µM [rising, single point]",
Cc1ccc(C)c(N2CCN(C(=O)c3cc4ccccn4n3)CC2)c1,"12.6 µM [rising, partial curve, poor fit]",
COC(=O)c1ccc(NC(=O)c2ccccc2CC[N+](=O)[O-])cc1,"10 µM [falling, partial curve, poor fit]","11.2 µM [falling, partial curve]"
CCN(c1cccc(C)c1)S(=O)(=O)c1ccc2c(c1)CCN2C(C)=O,"17.8 µM [rising, partial curve]","12.6 µM [rising, single point]"
Cc1cc(C(=O)CSc2nnc(N)s2)c(C)n1Cc1cccs1,"15.8 µM [rising, partial curve]",
O=C(CNS(=O)(=O)c1ccc(Cl)cc1)N/N=C/c1ccco1,,"0.158 µM [falling, single point]"
CC1CN(CCCCOc2ccc3ccccc3c2)CC(C)O1 (stereo unspecified),"20 µM [rising, single point]","17.8 µM [rising, partial curve, poor fit]"

Compound,AC50 [1],AC50 [2]
COCCCn1c(C)nnc1SCC(=O)NCc1ccco1,,"14.1 µM [falling, single point]"
O=C(COc1ccccc1)N1CCN(c2nnc(-c3ccccc3)c3ccccc23)CC1,"22.4 µM [rising, single point]",
Cc1sc2ncn(CC(=O)NCC3COc4ccccc4O3)c(=O)c2c1S(=O)(=O)N1CCOCC1 (stereo unspecified),,"0.251 µM [rising, full curve, poor fit]"
O=C(COc1ccccc1F)Nc1ccc2oc(-c3cccc(Cl)c3)nc2c1,"10 µM [falling, partial curve]","10 µM [falling, partial curve]"
O=C(CSc1nnc2c(n1)[nH]c1ccccc12)Nc1ccc2c(c1)OCO2,"14.1 µM [rising, single point]",
CCOC(=O)C1(C)/C(=N/Nc2cccc(Cl)c2)C(=O)C(=O)N1c1ccccc1 (stereo unspecified),"1.58 µM [falling, partial curve]","2.51 µM [falling, partial curve, poor fit]"
O=C(CSc1nnc(-c2cnccn2)n1Cc1ccco1)Nc1ccc(Br)cc1,"20 µM [rising, single point]","15.8 µM [rising, partial curve, poor fit]"
COc1ccc2cc(C3(C)NC(=O)N(CC(=O)NCCC4=CCCCC4)C3=O)ccc2c1 (stereo unspecified),"11.2 µM [rising, partial curve]",
Oc1ccccc1/C=N/Nc1cc(N2CCCC2)nc(N2CCCC2)n1,"35.5 µM [falling, single point]","35.5 µM [falling, single point]"
CCOC(=O)c1cc(C(C)C)sc1NC(=O)COC(=O)CCS(=O)(=O)c1ccccc1,,"20 µM [rising, partial curve]"
Cc1nc(NS(=O)(=O)c2ccccc2)sc1C(C)(C)C,"12.6 µM [rising, single point]",
CCN(CC)S(=O)(=O)c1cccc(C(=O)Nc2ccc(C#N)cc2)c1,"7.08 µM [rising, full curve]",
O=C(Nc1nnc(-c2cccs2)o1)c1ccc(S(=O)(=O)N2CCOCC2)cc1,"3.55 µM [rising, partial curve, poor fit]",
COc1cc(CNC(=O)c2ccc3nc(CCc4ccccc4)oc3c2)cc(OC)c1OC,"20 µM [falling, partial curve, poor fit]","1.41 µM [falling, full curve, poor fit]"
CCCCn1nnnc1SCC(=O)Nc1sc2c(c1C#N)CCCC2,"14.1 µM [rising, partial curve]",
COC(=O)Nc1ccc(SCC(=O)c2ccccc2)cc1,"2.51 µM [falling, partial curve]",
Cc1ccsc1C(=CCCN1CCC[C@@H](C(=O)O)C1)c1sccc1C,"25.1 µM [rising, single point]","0.001 µM [falling, full curve, poor fit]"
CCOc1ccc(N2C(=O)CCC2=O)cc1,"4.47 µM [falling, full curve, poor fit]","4.47 µM [falling, full curve, poor fit]"
O=C(NNc1cccc(Cl)n1)Nc1ccccc1F,"0.0224 µM [falling, full curve, poor fit]",

# Quoted from the listing.
# For AC50 [1], O=C(Nc1nnc(-c2cccs2)o1)c1ccc(S(=O)(=O)N2CCOCC2)cc1 shows 3.55 µM [rising, partial curve, poor fit]
# For AC50 [1], O=C(CSc1nnc(-c2cnccn2)n1Cc1ccco1)Nc1ccc(Br)cc1 shows 20 µM [rising, single point]
# For AC50 [1], O=C(COc1ccccc1F)Nc1ccc2oc(-c3cccc(Cl)c3)nc2c1 shows 10 µM [falling, partial curve]

# Further entries:

Compound,AC50 [1],AC50 [2]
CCCCCCCCC(=O)NC(NC(=S)N1CCOCC1)C(Cl)(Cl)Cl (stereo unspecified),"14.1 µM [rising, single point]",
CCOC(=O)c1[nH]c2ccc(OC)cc2c1NC(=O)C(C)N1CCSCC1 (stereo unspecified),,"3.16 µM [rising, partial curve, poor fit]"
Fc1ccc(Nc2nc(-c3ccncc3)nc3ccccc23)cc1F,"2 µM [rising, full curve]",
O=C(Cn1cnc([N+](=O)[O-])n1)N/N=C/c1cc(Cl)ccc1O,"14.1 µM [rising, single point]",
CN(C)S(=O)(=O)c1ccc(C(=O)OCC(=O)c2ccc3c(c2)NC(=O)CO3)cc1,,"14.1 µM [rising, single point]"
O=C(NC(Cc1c[nH]c2ccccc12)C(=O)Nc1ccc(F)cc1)c1cccs1 (stereo unspecified),"11.2 µM [rising, partial curve]",
O=C(NC12CC3CC(CC(C3)C1)C2)c1ccc(S(=O)(=O)N2CCOCC2)cc1,"7.94 µM [rising, partial curve, poor fit]",
CC(=O)Cc1nsc(NC(=O)c2cc(-c3ccccc3Cl)oc2C)n1,"35.5 µM [rising, single point]","20 µM [rising, single point]"
S=C(c1c[nH]c2ccccc12)N1CCOCC1,,"12.6 µM [falling, single point]"
CC(C)OCCCNC(=O)c1cc(Sc2ccc(F)cc2)nc2ccccc12,"10 µM [rising, partial curve, poor fit]",
Cc1cc(NCCCn2ccnc2)n2nc(C)c(-c3ccc(Cl)cc3)c2n1,"35.5 µM [falling, single point]","35.5 µM [falling, single point]"
CCOC(=O)/C=C1\Nc2ccccc2OC1=O,"11.2 µM [rising, partial curve]",
O=C(CCS(=O)(=O)c1ccccc1)NCCS(=O)(=O)c1ccccc1,,"11.2 µM [falling, partial curve, poor fit]"
O=S(=O)(Nc1ccc(O)c(Sc2nc3ccccc3s2)c1)c1ccc(F)cc1,"20 µM [rising, single point]",
CCOC(=O)CNC(=O)Nc1cc(C(=O)NCc2ccccc2OC)ccc1N1CCCC1,"28.2 µM [falling, single point]",
CCCCCn1c(=O)[nH]c2cc(C(=O)NCCCN3CCCCC3)ccc2c1=O,"6.31 µM [rising, full curve, poor fit]",
Cc1ccc(-c2noc(CCC(=O)NCc3ccc4c(c3)OCO4)n2)cc1,,"10 µM [rising, partial curve, poor fit]"
Cc1ccc(C(CC(=O)c2ccco2)SCCO)cc1 (stereo unspecified),"28.2 µM [falling, single point]","12.6 µM [falling, single point]"
CCc1cc(C(c2cccc(OC)c2)N2CCOCC2)c(NC(=O)c2ccccc2)s1 (stereo unspecified),"12.6 µM [falling, partial curve]","25.1 µM [falling, single point]"

# Reference: PubChem BioAssay AID1487 (National Center for Advancing Translational Sciences (NCATS), 2009)
